Reference: EPA's ToxRefDB 2

Tested on: rat
Conditions: Prenatal developmental toxicity study; wistar; Oral; Feed; dose end: 15 GD; group: maternal; systemic / in life observation / body weight / body weight gain + systemic / in life observation / food consumption / food consumption

CC(C)(C)c1ccc(O)cc1 [4-tert-Butylphenol]
NEL: 2120 mg/kg/day | NOAEL: 2120 mg/kg/day
